Measured values from paper PMC12811620.
No constants are given. Whether binding was seen depends on the method and setting. In cells and extracts the contact can be indirect. These calls come from enrichment with a bait or labelling near it, and not all partners need be listed.

Protein sequences, listed by entry. Tags and fused reporters are not part of them.
UniProt Q9CPN8: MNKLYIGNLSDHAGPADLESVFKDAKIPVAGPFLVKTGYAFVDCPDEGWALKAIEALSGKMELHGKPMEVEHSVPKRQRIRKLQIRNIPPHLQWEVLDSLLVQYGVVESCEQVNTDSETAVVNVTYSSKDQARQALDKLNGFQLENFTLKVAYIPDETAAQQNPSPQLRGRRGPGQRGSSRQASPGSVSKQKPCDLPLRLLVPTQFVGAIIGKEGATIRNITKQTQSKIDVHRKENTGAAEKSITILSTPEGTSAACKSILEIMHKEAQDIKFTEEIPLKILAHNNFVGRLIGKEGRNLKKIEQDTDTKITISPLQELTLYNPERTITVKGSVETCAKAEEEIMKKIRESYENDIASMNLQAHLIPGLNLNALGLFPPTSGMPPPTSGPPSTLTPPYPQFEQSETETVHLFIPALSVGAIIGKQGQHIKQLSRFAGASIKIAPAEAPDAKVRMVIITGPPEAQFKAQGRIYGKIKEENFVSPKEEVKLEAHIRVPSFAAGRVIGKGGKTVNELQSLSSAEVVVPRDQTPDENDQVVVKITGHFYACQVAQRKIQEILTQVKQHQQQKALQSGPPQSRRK
UniProt Q9Z2C8: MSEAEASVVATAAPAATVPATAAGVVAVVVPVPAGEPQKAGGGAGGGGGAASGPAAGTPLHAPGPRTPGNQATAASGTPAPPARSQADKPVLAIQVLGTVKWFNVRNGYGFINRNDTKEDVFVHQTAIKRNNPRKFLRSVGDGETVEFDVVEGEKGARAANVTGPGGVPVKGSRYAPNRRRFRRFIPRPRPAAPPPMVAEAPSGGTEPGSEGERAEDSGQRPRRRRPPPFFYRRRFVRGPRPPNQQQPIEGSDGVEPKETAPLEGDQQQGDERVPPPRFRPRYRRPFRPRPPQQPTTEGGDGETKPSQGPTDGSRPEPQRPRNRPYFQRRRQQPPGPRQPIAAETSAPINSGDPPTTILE

Target: Insulin-like growth factor 2 mRNA-binding protein 3 (IGF2BP3), endogenous in mouse round spermatids (mouse (endogenous in round spermatids)) (UniProt Q9CPN8)
Experiment: affinity purification with mass spectrometry; round spermatids of adult mouse testes lysed in IP lysis buffer; IgG or IGF2BP3 antibody-conjugated beads, 4 °C overnight; tryptic digest, LTQ Orbitrap Velos

YBX2, endogenous in mouse round spermatids (from UniProt Q9Z2C8 1-360)
binding: binds
